A short description of this data set: self-splicing fitness, log relative to wild type (ln ratio); higher = more splicing; Tetrahymena group I intron in knt gene, E. coli kanamycin selection, DiMSum; sequences stand for … in CUCUCU…GGAGGGAAAAGUUAUCAGGCAUGCACCUGGUAGCUAGUCUUUAAACCAAUAGAUUGCAUCGGUUUAAAAGGCAAGACCGUCAAAUUGCGGGAAAGGGGUCAACAGCCGUUCAGUACCAAGUCUCAGGGGAAACUUUGAGAUGGCCUUGCAAAGGGUAUGGUAAUAAGCUGACGGACAUGGUCCUAACCACGCAGCCAAGUCCUAAGUCAACAGAUCUUCUGUUGAUAUGGAUGCAGUUCACAGACUAAAUGUCGGUCGGGGAAGAUGUAUUCUUCUCAUAAGAUAUAGUCGGACCUCUCCUUAAUGGGAGCUAGCGGAUGAAGUGAUGCAACACUGGAGCCGCUGGGAACUAAUUUGUAUGCGAAAGUAUAUUGAUUAGUUUUGGAGUACUCGUGGUCG
In outline:
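Fitness was computed with DiMSum as the error-weighted combination of replicate fold changes, kanamycin versus none, each normalised to wild type. The library randomised all eight intron nucleotides of the P1ex region, with the intron placed in the knt kanamycin-resistance gene on pET-22b(+) in E. coli BL21(DE3). Six replicate transformations were grown overnight at 37°C or 30°C on LB agar with or without 25 μg/mL kanamycin, plus 100 μg/mL carbenicillin, 50 μM IPTG and 0.2% rhamnose. Pooled colonies were amplicon-sequenced on an Illumina HiSeq 2500.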

The text below walks through data of the supplement of paper PMC7877785.

± gives the uncertainty stated by the source. Many entries were measured with a wide error.

As to CGGGAGCAAUAUUACGCACA, the “self-splicing fitness (ln)” value reads like this: (30 °C) -2.75 ± 0.62; (37 °C) -1.37 ± 1.2. For GACUAGCAAUAUUACGCAGC, the “self-splicing fitness (ln)” value by setting is: (30 °C) -3.5 ± 0.23; (37 °C) -2.2 ± 0.31.

On to GUUAAGCAAUAUUACGGCUC, for which the “self-splicing fitness (ln)” value by setting is: (30 °C) 0.46 ± 0.2; (37 °C) -0.6 ± 0.21. UCGCAGCAAUAUUACGGUGU: where the note is “30 °C”, the “self-splicing fitness (ln)” value was -4.31 ± 0.72. As to CUCUAGCAAUAUUACGGCAA, the “self-splicing fitness (ln)” value (37 °C) is -4.41 ± 0.51. GAGUAGCAAUAUUACGAUCC: the “self-splicing fitness (ln)” value was -1.55 ± 0.092 (30 °C) and -0.509 ± 0.11 (37 °C).

Turning to CUUUAGCAAUAUUACGAAGU, the “self-splicing fitness (ln)” value (30 °C) was -2.53 ± 0.77. Regarding UUAAAGCAAUAUUACGCUUC, where the note is “37 °C”, the “self-splicing fitness (ln)” value was -1.49 ± 0.61. On to UCUGAGCAAUAUUACGCCAU, for which the “self-splicing fitness (ln)” value (30 °C) was -4.19 ± 0.52. As for UUCAAGCAAUAUUACGAAGC, the “self-splicing fitness (ln)” value by setting is: (30 °C) -3.51 ± 0.6; (37 °C) -1.81 ± 0.62. For the sequence CUUGAGCAAUAUUACGCGCC, the “self-splicing fitness (ln)” value runs as follows: (30 °C) -4.19 ± 1; (37 °C) -2.89 ± 1.1. CUGGAGCAAUAUUACGCCCA: the “self-splicing fitness (ln)” value (30 °C) was -4.39 ± 0.73.

As to GAUGAGCAAUAUUACGCAAA, the “self-splicing fitness (ln)” value is, setting by setting: (30 °C) -2.55 ± 0.51; (37 °C) -2.07 ± 0.56. With AGCUAGCAAUAUUACGGACA, the “self-splicing fitness (ln)” value by setting is: (30 °C) -1.06 ± 0.12; (37 °C) 0.0203 ± 0.15. On to GUACAGCAAUAUUACGAGUA, for which the “self-splicing fitness (ln)” value (30 °C) was -3.53 ± 0.73.

In the case of AAAGAGCAAUAUUACGCCCU, the “self-splicing fitness (ln)” value (30 °C) was -2.57 ± 0.21 and the “self-splicing fitness (ln)” value (37 °C) is -0.718 ± 0.17. With GCCUAGCAAUAUUACGACUA, the “self-splicing fitness (ln)” value (30 °C) is -2.48 ± 0.56.

As to GGGUAGCAAUAUUACGCCCU, the “self-splicing fitness (ln)” value by setting is: (30 °C) -1.83 ± 0.61; (37 °C) -1.1 ± 0.5. For CUAGAGCAAUAUUACGCCCA, the “self-splicing fitness (ln)” value (37 °C) is -0.681 ± 0.51. Turning to CUGAAGCAAUAUUACGACGU, the “self-splicing fitness (ln)” value reads like this: (30 °C) -2.75 ± 0.12; (37 °C) -1.09 ± 0.1.

As to CAGGAGCAAUAUUACGGCCC, the “self-splicing fitness (ln)” value was -1.32 ± 1.4 (30 °C) and -1.46 ± 0.74 (37 °C). For AUAGAGCAAUAUUACGUGAA, the “self-splicing fitness (ln)” value (30 °C) is -3.27 ± 1.1. As for UCCUAGCAAUAUUACGGCUC, the “self-splicing fitness (ln)” value (30 °C) was -2.44 ± 1.1.

UCUCAGCAAUAUUACGCAAC: for the setting “37 °C”, the “self-splicing fitness (ln)” value was -2.54 ± 0.62.

In the case of CUUCAGCAAUAUUACGACCG, the “self-splicing fitness (ln)” value reads like this: (30 °C) 0.185 ± 0.083; (37 °C) -0.454 ± 0.12.

In the case of UGUAAGCAAUAUUACGGGGA, the “self-splicing fitness (ln)” value (30 °C) was -4.39 ± 0.51.

Regarding AGAGAGCAAUAUUACGUAUC, the “self-splicing fitness (ln)” value (30 °C) was -2.79 ± 1.2. Turning to GACGAGCAAUAUUACGCUGG, the “self-splicing fitness (ln)” value (30 °C) was -4.94 ± 0.72. Take CAGUAGCAAUAUUACGGCCC: the “self-splicing fitness (ln)” value is -3.06 ± 1.1 (30 °C) and -1.08 ± 0.93 (37 °C).

Turning to CCUUAGCAAUAUUACGCGCC, under “37 °C”, the “self-splicing fitness (ln)” value is -2.79 ± 0.76. CCCGAGCAAUAUUACGUGAC: under “30 °C”, the “self-splicing fitness (ln)” value is -4.48 ± 0.51. UGCGAGCAAUAUUACGCCAG: the “self-splicing fitness (ln)” value (37 °C) was -2.12 ± 0.5. With CCUCAGCAAUAUUACGUCUC, under “37 °C”, the “self-splicing fitness (ln)” value is -3.38 ± 0.6. On to AUUAAGCAAUAUUACGCAAC, for which the “self-splicing fitness (ln)” value is, setting by setting: (30 °C) -2.99 ± 0.53; (37 °C) -2.14 ± 0.56. For the sequence GUGGAGCAAUAUUACGUAUA, the “self-splicing fitness (ln)” value (37 °C) is -3.24 ± 0.6. In the case of CAGCAGCAAUAUUACGUAUA, the “self-splicing fitness (ln)” value (30 °C) was -2.42 ± 0.18 and the “self-splicing fitness (ln)” value (37 °C) was -2.81 ± 0.29. In the case of GCUUAGCAAUAUUACGCACU, the “self-splicing fitness (ln)” value is -0.857 ± 0.11 (30 °C) and 0.197 ± 0.12 (37 °C). As for UCAAAGCAAUAUUACGGGGC, the “self-splicing fitness (ln)” value is, setting by setting: (30 °C) -2.18 ± 0.16; (37 °C) -2.14 ± 0.19.

Take UGGAAGCAAUAUUACGUGUC: the “self-splicing fitness (ln)” value (30 °C) was -5.63 ± 0.51. In the case of CUUUAGCAAUAUUACGACGC, for the setting “30 °C”, the “self-splicing fitness (ln)” value is -2.52 ± 0.8.

Consider GGUAAGCAAUAUUACGGUAA, for which the “self-splicing fitness (ln)” value by setting is: (30 °C) -1.6 ± 0.17; (37 °C) -0.53 ± 0.14. In the case of GCUUAGCAAUAUUACGCGCC, the “self-splicing fitness (ln)” value (37 °C) was 0.862 ± 0.51. Turning to GCGGAGCAAUAUUACGAGCA, the “self-splicing fitness (ln)” value (30 °C) is -2.1 ± 0.5. Take GUGUAGCAAUAUUACGCCCC: where the note is “37 °C”, the “self-splicing fitness (ln)” value was -0.924 ± 0.63. With CUUGAGCAAUAUUACGUUCC, under “37 °C”, the “self-splicing fitness (ln)” value was -1.98 ± 0.79. Consider GCUAAGCAAUAUUACGCGGC, for which the “self-splicing fitness (ln)” value is -0.424 ± 0.19 (30 °C) and -2.64 ± 0.5 (37 °C).

Regarding CUGAAGCAAUAUUACGAGGG, the “self-splicing fitness (ln)” value is, setting by setting: (30 °C) -2.03 ± 0.11; (37 °C) -1.25 ± 0.14.
